# Test results reported in PubChem BioAssay AID652054 (National Center for Advancing Translational Sciences (NCATS), 2013).
# Chains of the proteins cited; added tags and fusions are not shown.
# UniProt P35462, whole entry, looked up: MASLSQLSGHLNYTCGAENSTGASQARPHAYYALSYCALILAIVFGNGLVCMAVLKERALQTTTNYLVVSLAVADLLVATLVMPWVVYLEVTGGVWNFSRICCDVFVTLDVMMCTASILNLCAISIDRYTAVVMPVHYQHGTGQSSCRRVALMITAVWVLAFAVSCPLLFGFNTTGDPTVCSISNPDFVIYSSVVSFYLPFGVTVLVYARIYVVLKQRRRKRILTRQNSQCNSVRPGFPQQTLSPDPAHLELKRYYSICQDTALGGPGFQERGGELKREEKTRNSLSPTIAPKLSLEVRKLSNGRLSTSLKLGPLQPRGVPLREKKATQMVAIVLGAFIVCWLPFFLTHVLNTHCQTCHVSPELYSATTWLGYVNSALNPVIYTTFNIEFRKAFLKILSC
# The whole screen tested about 360,000 compounds, of which about 9,100 (2.5%) were called active. Inconclusive results, whose numbers are uncertain, are shown with a selection of clear calls. Rule as the data show it: active = max response below about -50%; inconclusive = no clear call, values can overlap the other calls; inactive = above that.
# Biological target: D(3) dopamine receptor (Homo sapiens) (UniProt P35462)
# Experiment: qHTS of D3 Dopamine Receptor Antagonist: qHTS
# Conditions: D3R cells, DiscoveRx beta-arrestin luminescence, antagonist mode; stronger effect = lower value
# Outline: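 Cells plated overnight at 1500 cells/well, then exposed to library compounds with dopamine controls for 90 minutes at 37 degrees C. DiscoveRx reagent added for 30–60 minutes at room temperature; luminescence read, quantitative HTS format.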
# % is scaled to controls: 0 for no effect and ±100 for the full control effect.
row,Compound,"max response, negative = inhibition"
1,Cc1ccc(S(=O)(=O)Nc2cncnc2NS(=O)(=O)c2ccc(C)cc2)cc1,inactive: 2.84%
2,CCOC(=O)c1cc(-c2ccc(OC)cc2)n(CCC(=O)NCCN2CCC(C)CC2)c1C,inconclusive: -34.3%
3,CCNC(=O)C1CCCN(C(=O)c2ccc(C)c(F)c2)CC1 (stereo not given),inconclusive: -42.3%
4,NC(=S)n1[nH]c(-c2ccc([N+](=O)[O-])cc2)c(N=Nc2ccccc2[N+](=O)[O-])c1=O,inactive: -26.9%
5,CN1CCN(C(=O)c2cccc3c(-c4ccc(F)c(F)c4)coc23)CC1,active: -100%
6,Cc1nnc(NCCc2ccccc2)c2ccccc12,inconclusive: -31.5%
7,CN1C(=O)c2ccc(NC(=O)c3cccc4ccccc34)cc2C1=O,inconclusive: -31.8%
8,S=c1[nH]nc(Cc2cccc3ccccc23)n1-c1ccccc1,active: -51.3%
9,COc1cccc(OCC(O)CN2CCN(C(c3ccccc3)c3ccccc3)CC2)c1 (stereo not given),inconclusive: -49.7%
10,CN(CC(=O)NC1CCCc2ccccc21)C1CCCCC1 (stereo not given),active: -51.1%
11,COc1ccc(O)c(-c2cc(-c3ccc(F)cc3)n[nH]2)c1,inactive: 60.2%
12,CC1CN(C2CCN(S(=O)(=O)Cc3ccccc3)CC2)CC(C)O1 (stereo not given),inconclusive: -37.3%
13,CCOC(=O)c1sc(NC(=O)c2cc3n(n2)C(C(F)(F)F)CC(c2cccs2)N3)c(C(=O)OCC)c1C (stereo not given),inactive: 0%
14,CSc1ccc(C2=CC(=O)C[C@H](c3ccc4c(c3)OCO4)C2)cc1,active: -51.9%
15,O=C1CCc2cc(S(=O)(=O)NCCC(=O)N3CCN(c4cccc(Cl)c4)CC3)ccc2N1,inconclusive: -42.7%
16,O=C(CN1CCN(S(=O)(=O)c2ccc(Br)cc2)CC1)Nc1ccc2c(c1)OCCO2,inconclusive: -44.9%
17,COc1cc(CN2CCCC(N3CCN(c4ccccc4C)CC3)C2)cc(Cl)c1O (stereo not given),inconclusive: -46.6%
18,c1ccc(C(c2ccccc2)c2noc(CN3CCN(C4CCCC4)CC3)n2)cc1,inconclusive: -45.2%
19,CC(CCN1CCN(c2ccccc2)CC1)c1ccccc1 (stereo not given),active: -102%
20,COc1cc(C)nc(NS(=O)(=O)c2ccc(C)cc2)n1,inconclusive: -30.6%
21,O=C(Nc1ccccc1)c1ccccc1Oc1ccc(C(F)(F)F)cc1[N+](=O)[O-],inactive: -4.87%
22,OC(CN1CCC(Cc2ccccc2)CC1)c1ccccc1 (stereo not given),active: -88.2%
23,Cc1ccc(S(=O)(=O)N2CCN(C(=O)c3cccc(-n4cccc4)c3)CC2)cc1,inactive: 0.991%

row,Compound,"max response, negative = inhibition"
1,CCOc1ccccc1NC(=O)CN1CCC(C(=O)c2ccc(F)cc2)CC1,inconclusive: -38.6%
2,O=C(CN1CCOCC1)N1c2ccccc2Sc2ccccc21,inactive: -6.5%
3,COC(=O)c1ccc(CO/N=C(\NC(C)=O)c2nonc2NC(C)=O)cc1,inconclusive: -49.7%
4,Oc1ccc(Cn2ccnc2)c2cccnc12,inconclusive: -41.4%
5,CC(CCc1ccc(O)cc1)N1CCC(Oc2ccc(C(=O)N3CCCC3)cc2)CC1 (stereo not given),inactive: 4.51%
6,COc1ccccc1NC(=S)NNC(=O)c1cc(C)nn1C,active: -70.3%
7,COc1ccccc1-n1c(SCC(=O)N2CCOCC2)nc2cccnc21,inconclusive: -47.4%
8,O=C(O)c1cccc(NS(=O)(=O)c2cc(S(=O)(=O)c3ccc(Cl)cc3)ccc2Cl)c1,inconclusive: -37.9%
9,Clc1ccc(SCCOCCN2CCc3ccccc3C2)cc1,active: -88%
10,COCCNC(=S)c1ccc(OC)cc1,inconclusive: -37.3%
11,O=C(CNC(c1ccccc1)c1ccccc1)Nc1ccc(F)cc1,inconclusive: -46.1%
12,CCc1[nH]c(C(=O)O)c(C)c1C(=O)OC,inactive: 5.13%
13,Cc1nc(NC(=O)c2ccncc2)sc1C(=O)N(C)C,inactive: -4.37%
14,CC1CCC/C=C/C(=O)c2c(O)cc(O)cc2CC(=O)O1 (stereo not given),active: -88.8%
15,CCC(=O)Nc1cccc(C2=NOC3(C2)C[C@@H](C(N)=O)N(C(=O)c2cc([N+](=O)[O-])cc([N+](=O)[O-])c2C)C3)c1 (stereo not given in full),inconclusive: -35.9%
16,COc1cc2c(cc1OC)C1C(=O)c3cc(OS(C)(=O)=O)c(OC)cc3C1N(C)C2=O (stereo not given),inconclusive: -38.9%
17,Cn1cccc1C1CCCN1CC(=O)Nc1ccc(F)c(F)c1F (stereo not given),inconclusive: -37.1%
18,N=c1sccn1CC(=O)Nc1cc(Cl)ccc1Oc1ccccc1,inconclusive: -49.6%
19,CC1CCN(C(=O)c2ccc3c(c2NCCO)C(=O)c2ccccc2C3=O)CC1,inconclusive: -34.8%
20,CC(C)(C)N(NS(=O)(=O)c1ccc(F)cc1)c1ccccc1,inconclusive: -46.2%
21,CC(=O)NCCNC(=O)Cn1nnc(-c2ccccc2)c1COc1ccc2ccccc2c1,inconclusive: -47.7%
22,CC1(C)CN(c2ccccc2)N(C(=O)c2ccc(F)cc2)C1=O,inconclusive: -45.5%

# Single values from above:
# max response, negative = inhibition with `Cn1cccc1C1CCCN1CC(=O)Nc1ccc(F)c(F)c1F` (stereo not given) is entered as inconclusive: -37.1%
# max response, negative = inhibition with `CC1CCC/C=C/C(=O)c2c(O)cc(O)cc2CC(=O)O1` (stereo not given) is entered as active: -88.8%
